Assay results taken from patent US20160354465A1.
No constants are given. Whether binding was seen depends on the method and setting. In cells and extracts the contact can be indirect. Some entries that bind do so weakly or less than the wild type.

Chains of the proteins cited; added tags and fusions are not shown. Lines headed by an entry give the natural chain unless they say otherwise; changes in a name come on top. A line that says so, or that is headed by a name, gives the form on record, which may keep a tag or linker.
UniProt Q16620: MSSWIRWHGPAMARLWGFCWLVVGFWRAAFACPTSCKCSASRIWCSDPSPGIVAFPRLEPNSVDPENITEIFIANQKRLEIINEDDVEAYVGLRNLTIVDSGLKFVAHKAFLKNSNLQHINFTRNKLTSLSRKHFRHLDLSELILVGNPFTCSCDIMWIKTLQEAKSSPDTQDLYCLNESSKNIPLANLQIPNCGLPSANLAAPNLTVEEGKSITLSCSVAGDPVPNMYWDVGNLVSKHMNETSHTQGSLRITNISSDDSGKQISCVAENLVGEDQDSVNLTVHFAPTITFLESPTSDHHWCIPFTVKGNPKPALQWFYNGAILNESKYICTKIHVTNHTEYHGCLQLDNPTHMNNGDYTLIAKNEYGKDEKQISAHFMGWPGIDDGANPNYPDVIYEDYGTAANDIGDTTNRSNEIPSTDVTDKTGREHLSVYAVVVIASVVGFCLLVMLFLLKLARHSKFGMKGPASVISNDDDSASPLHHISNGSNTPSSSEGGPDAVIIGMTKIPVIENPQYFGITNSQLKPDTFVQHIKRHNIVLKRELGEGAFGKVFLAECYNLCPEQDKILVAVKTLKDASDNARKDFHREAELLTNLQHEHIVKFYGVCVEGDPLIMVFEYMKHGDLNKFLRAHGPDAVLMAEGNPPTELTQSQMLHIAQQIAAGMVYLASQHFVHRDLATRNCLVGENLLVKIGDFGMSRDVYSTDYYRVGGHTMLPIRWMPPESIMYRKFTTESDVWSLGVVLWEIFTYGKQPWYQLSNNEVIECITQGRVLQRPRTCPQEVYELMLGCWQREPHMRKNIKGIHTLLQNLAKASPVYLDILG
UniProt Q63604: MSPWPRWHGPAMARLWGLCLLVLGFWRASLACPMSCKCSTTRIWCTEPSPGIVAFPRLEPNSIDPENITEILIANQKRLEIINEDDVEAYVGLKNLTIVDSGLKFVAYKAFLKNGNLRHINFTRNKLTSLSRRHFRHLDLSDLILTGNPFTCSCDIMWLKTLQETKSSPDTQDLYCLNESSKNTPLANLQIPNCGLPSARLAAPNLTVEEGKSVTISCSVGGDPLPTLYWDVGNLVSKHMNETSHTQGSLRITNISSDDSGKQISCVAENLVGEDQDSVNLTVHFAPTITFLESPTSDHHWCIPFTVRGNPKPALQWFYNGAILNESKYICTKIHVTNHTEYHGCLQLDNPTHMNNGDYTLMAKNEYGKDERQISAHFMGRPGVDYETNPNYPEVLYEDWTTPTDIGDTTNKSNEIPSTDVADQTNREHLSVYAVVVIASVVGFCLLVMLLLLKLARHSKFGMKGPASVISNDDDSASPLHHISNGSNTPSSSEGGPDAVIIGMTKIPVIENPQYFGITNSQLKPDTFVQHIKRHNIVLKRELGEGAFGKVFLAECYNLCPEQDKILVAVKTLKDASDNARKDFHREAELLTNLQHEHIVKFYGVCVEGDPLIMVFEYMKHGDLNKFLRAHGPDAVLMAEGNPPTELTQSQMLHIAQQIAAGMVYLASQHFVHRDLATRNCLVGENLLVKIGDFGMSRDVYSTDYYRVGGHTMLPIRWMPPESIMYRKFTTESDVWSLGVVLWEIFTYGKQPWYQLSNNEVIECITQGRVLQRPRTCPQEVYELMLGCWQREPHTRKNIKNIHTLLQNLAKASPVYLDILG
UniProt Q96FE5: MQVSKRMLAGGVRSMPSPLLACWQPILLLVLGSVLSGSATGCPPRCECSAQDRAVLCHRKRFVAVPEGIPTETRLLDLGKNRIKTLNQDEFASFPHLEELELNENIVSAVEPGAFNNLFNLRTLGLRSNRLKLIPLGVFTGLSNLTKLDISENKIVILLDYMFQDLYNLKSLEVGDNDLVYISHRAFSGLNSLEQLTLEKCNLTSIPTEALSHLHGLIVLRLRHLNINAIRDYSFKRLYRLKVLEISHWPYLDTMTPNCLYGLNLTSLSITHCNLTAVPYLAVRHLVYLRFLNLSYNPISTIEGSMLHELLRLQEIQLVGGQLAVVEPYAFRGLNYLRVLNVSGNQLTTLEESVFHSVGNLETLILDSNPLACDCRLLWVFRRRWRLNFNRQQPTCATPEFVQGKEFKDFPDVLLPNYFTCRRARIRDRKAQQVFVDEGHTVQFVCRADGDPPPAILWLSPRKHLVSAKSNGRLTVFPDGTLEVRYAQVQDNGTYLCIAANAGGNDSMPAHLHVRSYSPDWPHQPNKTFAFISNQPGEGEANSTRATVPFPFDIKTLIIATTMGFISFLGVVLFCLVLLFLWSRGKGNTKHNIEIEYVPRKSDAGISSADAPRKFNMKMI
LINGO-1 of rat retina (endogenous) (A0A8I5ZPI2, form named): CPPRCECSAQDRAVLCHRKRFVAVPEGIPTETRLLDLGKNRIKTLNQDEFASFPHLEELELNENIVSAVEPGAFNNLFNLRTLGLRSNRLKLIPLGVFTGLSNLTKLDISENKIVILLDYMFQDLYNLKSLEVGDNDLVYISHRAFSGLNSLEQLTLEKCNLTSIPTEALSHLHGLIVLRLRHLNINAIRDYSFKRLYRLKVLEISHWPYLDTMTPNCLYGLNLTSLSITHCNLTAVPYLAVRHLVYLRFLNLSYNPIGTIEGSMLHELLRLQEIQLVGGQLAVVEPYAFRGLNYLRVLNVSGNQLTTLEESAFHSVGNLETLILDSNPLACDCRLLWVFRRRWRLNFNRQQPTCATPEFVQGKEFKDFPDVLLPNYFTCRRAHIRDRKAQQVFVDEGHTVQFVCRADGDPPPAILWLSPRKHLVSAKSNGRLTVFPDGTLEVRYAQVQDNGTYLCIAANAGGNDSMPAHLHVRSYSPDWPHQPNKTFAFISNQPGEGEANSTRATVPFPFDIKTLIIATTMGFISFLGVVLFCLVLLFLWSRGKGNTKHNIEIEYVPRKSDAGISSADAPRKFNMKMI

Assays:
[1] = biological target: myc-tagged full length human TrkB (human) (UniProt Q16620); test: co-immunoprecipitation from lysates of transfected 293T cells (IP with anti-LINGO-1, western blot with anti-myc for TrkB)
[2] = biological target: myc-tagged full length human TrkB (human) (UniProt Q16620); test: restates the in vitro co-immunoprecipitation
[3] = biological target: TrkB of rat retina (endogenous) (rat) (UniProt Q63604); test: co-immunoprecipitation from rat retinal lysates (IP with anti-TrkB, western blot with anti-LINGO-1)

binding [1]	binding [2]	binding [3]	Substance
binds	binds	–	HA-tagged full length human LINGO-1 (from UniProt Q96FE5 42-620) (receptor)
–	–	binds	LINGO-1 of rat retina (endogenous) (from UniProt A0A8I5ZPI2 36-614) (receptor)
